These are literature values, as cited in article PMC4959829 (Biochemical Pharmacology, 2016).

The conditions of the data set: cited from earlier work.

Turning to `CCCCc1oc2ccccc2c1C(=O)c1cc(I)c(OCCN(CC)CC)c(I)c1` [Amiodarone, amiodarone], the “Plasma clinical concentration range” value is 1.6 to 5.9 µM.
